{"source": "PubChem BioAssay AID652243 – Drosophila RNAi Screening Center, 2013", "test": "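Fly regulators of androgen-dependent reporter output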 (primary screen)", "cells": "Drosophila S2R+ cells", "reagents": "long dsRNA against Drosophila genes", "time to read-out": "72 h (48 h, then 24 h hormone)", "conditions": "synthetic androgen R1881 at 10 nM for 24 h", "detection": "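Per-well raw luminescence of the androgen-driven firefly reporter and of the Renilla control, two replicates each, without normalisation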", "reading the numbers": "firefly reporter light: higher = more light from androgen-responsive reporter; Renilla control light: higher = more constitutive control signal (cell number, transfection)", "active means": "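Hit when the log firefly-to-Renilla ratio dropped or increased by a fixed fold versus the mean of GFP or LacZ controls across duplicate plates; lowering cut given as 1.5 and as 3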", "calls": "active = hit: reporter lowered or raised; inactive = no hit", "note": "In all, the deposit lists about 24,000 reagents; below is a random part of those that have a named target and a result. Over the whole deposit, 246 (1%) were called active. 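Plates not normalised; calls are printed but the firefly/Renilla ratio behind them is not deposited; fold cut for lowering reported inconsistently.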 Raw values vary from plate to plate and are shown uncorrected. A number with no mark means an inactive call. The record does not give: the amount of reagent."}
The first 2 records, to show the layout:
{"target gene": "exex (GeneID 38884)", "dsRNA": "DRSC10972", "firefly reporter light, replicate 1": 1.03e5, "firefly reporter light, replicate 2": 79517, "Renilla control light, replicate 1": 1.51e6, "Renilla control light, replicate 2": 9.92e5}
{"target gene": "exex (GeneID 38884)", "dsRNA": "DRSC24644", "firefly reporter light, replicate 1": 7.72e5, "firefly reporter light, replicate 2": 4.44e5, "Renilla control light, replicate 1": 6.61e5, "Renilla control light, replicate 2": 5.12e5}

The list itself, from the start:
{"target gene": "exex (GeneID 38884)", "dsRNA": "DRSC10972", "firefly reporter light, replicate 1": 1.03e5, "firefly reporter light, replicate 2": 79517, "Renilla control light, replicate 1": 1.51e6, "Renilla control light, replicate 2": 9.92e5}
{"target gene": "exex (GeneID 38884)", "dsRNA": "DRSC24644", "firefly reporter light, replicate 1": 7.72e5, "firefly reporter light, replicate 2": 4.44e5, "Renilla control light, replicate 1": 6.61e5, "Renilla control light, replicate 2": 5.12e5}
{"target gene": "Acbp3 (GeneID 38783)", "dsRNA": "DRSC11022", "firefly reporter light, replicate 1": 2.09e5, "firefly reporter light, replicate 2": 2.07e5, "Renilla control light, replicate 1": 2.64e6, "Renilla control light, replicate 2": 2.63e6}
{"target gene": "Acbp3 (GeneID 38783)", "dsRNA": "DRSC25356", "firefly reporter light, replicate 1": 6.85e5, "firefly reporter light, replicate 2": 6.86e5, "Renilla control light, replicate 1": 1.40e6, "Renilla control light, replicate 2": 1.62e6}
{"target gene": "Polr3I (GeneID 32678)", "dsRNA": "DRSC19922", "firefly reporter light, replicate 1": 1.26e5, "firefly reporter light, replicate 2": 1.08e5, "Renilla control light, replicate 1": 8.07e5, "Renilla control light, replicate 2": 8.57e5}
{"target gene": "CG14984 (GeneID 38467)", "dsRNA": "DRSC08442", "firefly reporter light, replicate 1": 1.38e5, "firefly reporter light, replicate 2": 84863, "Renilla control light, replicate 1": 1.57e6, "Renilla control light, replicate 2": 1.20e6}
{"target gene": "CG14984 (GeneID 38467)", "dsRNA": "DRSC27683", "firefly reporter light, replicate 1": 3.16e5, "firefly reporter light, replicate 2": 2.56e5, "Renilla control light, replicate 1": 5.61e5, "Renilla control light, replicate 2": 7.34e5}
{"target gene": "osy (GeneID 43186)", "dsRNA": "DRSC14903", "firefly reporter light, replicate 1": 1.97e5, "firefly reporter light, replicate 2": 1.66e5, "Renilla control light, replicate 1": 2.20e6, "Renilla control light, replicate 2": 1.83e6}
{"target gene": "osy (GeneID 43186)", "dsRNA": "DRSC15979", "firefly reporter light, replicate 1": 2.58e5, "firefly reporter light, replicate 2": 2.37e5, "Renilla control light, replicate 1": 3.42e6, "Renilla control light, replicate 2": 3.45e6}
{"target gene": "osy (GeneID 43186)", "dsRNA": "DRSC15981", "firefly reporter light, replicate 1": 26497, "firefly reporter light, replicate 2": 39359, "Renilla control light, replicate 1": 3.08e5, "Renilla control light, replicate 2": 3.29e5}
{"target gene": "Nadk2 (GeneID 35918)", "dsRNA": "DRSC07072", "firefly reporter light, replicate 1": 1.06e6, "firefly reporter light, replicate 2": 1.06e6, "Renilla control light, replicate 1": 1.78e6, "Renilla control light, replicate 2": 1.98e6}
{"target gene": "CG9270 (GeneID 35366)", "dsRNA": "DRSC03182", "firefly reporter light, replicate 1": 1.12e6, "firefly reporter light, replicate 2": 9.88e5, "Renilla control light, replicate 1": 3.35e6, "Renilla control light, replicate 2": 3.08e6}
{"target gene": "CG3397 (GeneID 41454)", "dsRNA": "DRSC15487", "firefly reporter light, replicate 1": 76871, "firefly reporter light, replicate 2": 95698, "Renilla control light, replicate 1": 6.14e5, "Renilla control light, replicate 2": 7.22e5}
{"target gene": "CG5056 (GeneID 34406)", "dsRNA": "DRSC02808", "firefly reporter light, replicate 1": 2.44e5, "firefly reporter light, replicate 2": 2.94e5, "Renilla control light, replicate 1": 1.72e6, "Renilla control light, replicate 2": 2.08e6}
{"target gene": "REPTOR (GeneID 42930)", "dsRNA": "DRSC14626", "firefly reporter light, replicate 1": 7997, "firefly reporter light, replicate 2": 24257, "Renilla control light, replicate 1": 2.27e5, "Renilla control light, replicate 2": 2.32e5}
{"target gene": "REPTOR (GeneID 42930)", "dsRNA": "DRSC24359", "firefly reporter light, replicate 1": 2.62e5, "firefly reporter light, replicate 2": 2.63e5, "Renilla control light, replicate 1": 3.79e5, "Renilla control light, replicate 2": 3.65e5}
{"target gene": "CNBP (GeneID 37646)", "dsRNA": "DRSC04116", "firefly reporter light, replicate 1": 2.73e5, "firefly reporter light, replicate 2": 2.73e5, "Renilla control light, replicate 1": 1.86e6, "Renilla control light, replicate 2": 1.40e6}
{"target gene": "CNBP (GeneID 37646)", "dsRNA": "DRSC21317", "firefly reporter light, replicate 1": 3.23e5, "firefly reporter light, replicate 2": 3.37e5, "Renilla control light, replicate 1": 1.40e6, "Renilla control light, replicate 2": 1.42e6}
{"target gene": "CNBP (GeneID 37646)", "dsRNA": "DRSC29556", "firefly reporter light, replicate 1": 3.80e5, "firefly reporter light, replicate 2": 5.86e5, "Renilla control light, replicate 1": 6.93e5, "Renilla control light, replicate 2": 6.93e5}
{"target gene": "Mst57Dc (GeneID 43121)", "dsRNA": "DRSC16745", "firefly reporter light, replicate 1": 2.97e5, "firefly reporter light, replicate 2": 3.45e5, "Renilla control light, replicate 1": 3.27e6, "Renilla control light, replicate 2": 2.86e6}
{"target gene": "CG15347 (GeneID 31779)", "dsRNA": "DRSC18031", "firefly reporter light, replicate 1": 3.15e5, "firefly reporter light, replicate 2": 3.77e5, "Renilla control light, replicate 1": 3.13e6, "Renilla control light, replicate 2": 3.71e6}
{"target gene": "rols (GeneID 39368)", "dsRNA": "DRSC09873", "firefly reporter light, replicate 1": 7.19e5, "firefly reporter light, replicate 2": 6.66e5, "Renilla control light, replicate 1": 2.22e6, "Renilla control light, replicate 2": 2.23e6}
{"target gene": "rols (GeneID 39368)", "dsRNA": "DRSC10254", "firefly reporter light, replicate 1": 1.45e5, "firefly reporter light, replicate 2": 1.58e5, "Renilla control light, replicate 1": 1.62e6, "Renilla control light, replicate 2": 1.54e6}
{"target gene": "rols (GeneID 39368)", "dsRNA": "DRSC10536", "firefly reporter light, replicate 1": 1.32e5, "firefly reporter light, replicate 2": 1.47e5, "Renilla control light, replicate 1": 2.00e6, "Renilla control light, replicate 2": 2.10e6}
{"target gene": "Lsp2 (GeneID 45326)", "dsRNA": "DRSC09841", "firefly reporter light, replicate 1": 1.52e5, "firefly reporter light, replicate 2": 1.48e5, "Renilla control light, replicate 1": 1.63e6, "Renilla control light, replicate 2": 1.76e6}
{"target gene": "Lsp2 (GeneID 45326)", "dsRNA": "DRSC11216", "firefly reporter light, replicate 1": 1.88e5, "firefly reporter light, replicate 2": 1.64e5, "Renilla control light, replicate 1": 1.98e6, "Renilla control light, replicate 2": 1.73e6}
{"target gene": "Lsp2 (GeneID 45326)", "dsRNA": "DRSC24021", "firefly reporter light, replicate 1": 4.09e5, "firefly reporter light, replicate 2": 3.30e5, "Renilla control light, replicate 1": 4.60e5, "Renilla control light, replicate 2": 4.42e5}
